Reference: the supplement of paper PMC10849652
Some of the results follow.

Sequences of proteins named here, by UniProt entry; tags and fusion partners are left off. A change or cut given only in a name is not applied to a line headed by its entry.
UniProt Q9P2E9: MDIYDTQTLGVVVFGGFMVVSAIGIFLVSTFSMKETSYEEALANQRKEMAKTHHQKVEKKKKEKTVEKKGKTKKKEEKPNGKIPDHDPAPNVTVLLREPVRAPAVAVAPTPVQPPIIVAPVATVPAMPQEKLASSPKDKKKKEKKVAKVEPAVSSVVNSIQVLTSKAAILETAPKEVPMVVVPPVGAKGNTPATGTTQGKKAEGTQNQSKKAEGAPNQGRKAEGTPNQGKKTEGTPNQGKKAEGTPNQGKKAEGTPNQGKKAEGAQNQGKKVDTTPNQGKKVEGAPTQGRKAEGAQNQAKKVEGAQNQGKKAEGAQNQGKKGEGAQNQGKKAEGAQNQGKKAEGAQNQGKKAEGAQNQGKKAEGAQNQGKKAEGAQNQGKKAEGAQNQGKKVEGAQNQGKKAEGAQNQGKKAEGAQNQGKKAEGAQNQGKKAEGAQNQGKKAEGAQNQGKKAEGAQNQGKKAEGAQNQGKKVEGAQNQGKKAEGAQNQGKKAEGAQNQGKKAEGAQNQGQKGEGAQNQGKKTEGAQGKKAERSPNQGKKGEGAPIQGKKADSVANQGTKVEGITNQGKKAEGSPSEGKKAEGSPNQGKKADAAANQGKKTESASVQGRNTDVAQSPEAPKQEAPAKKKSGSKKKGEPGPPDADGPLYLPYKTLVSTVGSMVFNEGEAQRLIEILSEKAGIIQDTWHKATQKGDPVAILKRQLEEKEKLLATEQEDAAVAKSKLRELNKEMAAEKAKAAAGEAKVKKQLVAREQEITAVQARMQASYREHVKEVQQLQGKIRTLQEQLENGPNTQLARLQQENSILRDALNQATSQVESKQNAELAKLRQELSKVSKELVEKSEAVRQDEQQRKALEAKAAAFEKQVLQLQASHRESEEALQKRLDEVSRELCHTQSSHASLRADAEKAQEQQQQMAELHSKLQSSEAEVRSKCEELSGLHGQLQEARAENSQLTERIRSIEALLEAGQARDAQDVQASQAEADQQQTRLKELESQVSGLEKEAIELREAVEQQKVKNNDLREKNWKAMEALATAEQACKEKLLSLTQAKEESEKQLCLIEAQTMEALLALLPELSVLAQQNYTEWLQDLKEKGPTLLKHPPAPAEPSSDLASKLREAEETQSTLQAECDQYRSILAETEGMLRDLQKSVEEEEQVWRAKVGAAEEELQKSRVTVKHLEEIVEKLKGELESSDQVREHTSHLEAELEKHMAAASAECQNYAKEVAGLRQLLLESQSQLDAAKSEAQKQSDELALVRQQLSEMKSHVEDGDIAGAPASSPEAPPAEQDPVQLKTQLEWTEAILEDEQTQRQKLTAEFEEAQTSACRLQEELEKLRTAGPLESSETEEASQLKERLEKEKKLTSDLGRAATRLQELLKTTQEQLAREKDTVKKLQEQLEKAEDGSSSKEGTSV
UniProt Q8IZ73: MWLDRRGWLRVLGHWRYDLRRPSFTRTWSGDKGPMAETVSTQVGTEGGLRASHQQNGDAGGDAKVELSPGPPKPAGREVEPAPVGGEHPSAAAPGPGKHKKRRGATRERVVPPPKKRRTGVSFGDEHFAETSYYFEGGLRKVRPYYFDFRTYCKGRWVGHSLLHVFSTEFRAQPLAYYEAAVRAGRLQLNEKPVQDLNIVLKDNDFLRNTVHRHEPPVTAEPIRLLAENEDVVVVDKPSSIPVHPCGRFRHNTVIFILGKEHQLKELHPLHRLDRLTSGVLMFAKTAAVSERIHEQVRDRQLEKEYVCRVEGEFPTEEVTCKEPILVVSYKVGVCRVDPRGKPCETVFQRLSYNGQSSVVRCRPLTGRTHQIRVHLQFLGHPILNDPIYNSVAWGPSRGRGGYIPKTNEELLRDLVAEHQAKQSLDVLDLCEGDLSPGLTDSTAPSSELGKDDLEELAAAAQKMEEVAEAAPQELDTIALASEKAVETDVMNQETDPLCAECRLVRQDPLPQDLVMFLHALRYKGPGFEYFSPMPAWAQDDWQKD
UniProt Q9Y230, whole entry, looked up: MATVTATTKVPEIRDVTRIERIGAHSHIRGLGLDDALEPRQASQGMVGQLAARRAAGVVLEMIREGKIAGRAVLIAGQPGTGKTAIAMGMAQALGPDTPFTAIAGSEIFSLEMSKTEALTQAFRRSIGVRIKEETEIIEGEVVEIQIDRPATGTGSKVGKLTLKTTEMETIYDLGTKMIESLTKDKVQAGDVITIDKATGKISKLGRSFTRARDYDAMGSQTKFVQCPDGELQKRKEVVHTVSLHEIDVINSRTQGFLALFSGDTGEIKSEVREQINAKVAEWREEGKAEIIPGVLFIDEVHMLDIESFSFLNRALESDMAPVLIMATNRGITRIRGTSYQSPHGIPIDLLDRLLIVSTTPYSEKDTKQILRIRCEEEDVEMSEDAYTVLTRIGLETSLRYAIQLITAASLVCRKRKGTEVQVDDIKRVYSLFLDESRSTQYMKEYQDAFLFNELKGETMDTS
UniProt O43818: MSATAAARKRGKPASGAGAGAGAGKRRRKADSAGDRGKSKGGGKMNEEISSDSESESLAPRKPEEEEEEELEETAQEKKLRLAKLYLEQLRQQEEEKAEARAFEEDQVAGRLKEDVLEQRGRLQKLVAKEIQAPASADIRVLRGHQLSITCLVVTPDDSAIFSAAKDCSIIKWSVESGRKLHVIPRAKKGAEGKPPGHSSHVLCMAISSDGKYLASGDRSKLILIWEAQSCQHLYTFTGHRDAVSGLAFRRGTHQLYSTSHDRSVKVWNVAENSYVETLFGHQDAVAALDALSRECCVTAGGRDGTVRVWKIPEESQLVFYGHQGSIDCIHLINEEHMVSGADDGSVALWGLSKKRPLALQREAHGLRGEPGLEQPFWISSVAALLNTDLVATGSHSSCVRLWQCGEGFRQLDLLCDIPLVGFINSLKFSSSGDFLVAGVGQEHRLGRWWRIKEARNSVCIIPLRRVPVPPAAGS
UniProt P04844: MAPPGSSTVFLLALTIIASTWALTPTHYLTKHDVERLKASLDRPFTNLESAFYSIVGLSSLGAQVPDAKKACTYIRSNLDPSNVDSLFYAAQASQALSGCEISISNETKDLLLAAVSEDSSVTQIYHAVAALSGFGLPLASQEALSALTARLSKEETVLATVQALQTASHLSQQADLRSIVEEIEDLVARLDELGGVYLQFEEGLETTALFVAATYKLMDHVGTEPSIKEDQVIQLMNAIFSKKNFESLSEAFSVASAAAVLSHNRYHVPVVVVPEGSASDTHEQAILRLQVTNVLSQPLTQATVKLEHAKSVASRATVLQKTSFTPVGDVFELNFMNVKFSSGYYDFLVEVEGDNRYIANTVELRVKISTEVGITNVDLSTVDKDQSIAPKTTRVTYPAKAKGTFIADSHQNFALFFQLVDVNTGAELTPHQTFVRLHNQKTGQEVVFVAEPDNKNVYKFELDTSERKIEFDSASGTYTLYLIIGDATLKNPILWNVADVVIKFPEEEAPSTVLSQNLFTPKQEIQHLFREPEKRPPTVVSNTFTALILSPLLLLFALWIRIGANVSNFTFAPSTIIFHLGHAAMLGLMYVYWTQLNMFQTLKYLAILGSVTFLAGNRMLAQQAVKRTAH
UniProt Q96IZ7: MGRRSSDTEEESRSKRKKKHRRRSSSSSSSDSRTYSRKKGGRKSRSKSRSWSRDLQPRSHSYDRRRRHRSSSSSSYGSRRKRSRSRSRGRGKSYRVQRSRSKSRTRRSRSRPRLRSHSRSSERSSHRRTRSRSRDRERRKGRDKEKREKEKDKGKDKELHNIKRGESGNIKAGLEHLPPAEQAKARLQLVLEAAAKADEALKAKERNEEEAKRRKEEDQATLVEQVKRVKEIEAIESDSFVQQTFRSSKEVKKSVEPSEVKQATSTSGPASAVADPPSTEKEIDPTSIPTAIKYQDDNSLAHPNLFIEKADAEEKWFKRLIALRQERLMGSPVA
UniProt Q8N5L8: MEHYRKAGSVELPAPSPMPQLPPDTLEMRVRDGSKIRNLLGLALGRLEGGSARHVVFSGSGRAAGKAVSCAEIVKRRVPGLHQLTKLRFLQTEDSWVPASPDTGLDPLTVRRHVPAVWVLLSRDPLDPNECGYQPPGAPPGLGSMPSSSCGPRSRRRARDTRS
UniProt Q5JTH9: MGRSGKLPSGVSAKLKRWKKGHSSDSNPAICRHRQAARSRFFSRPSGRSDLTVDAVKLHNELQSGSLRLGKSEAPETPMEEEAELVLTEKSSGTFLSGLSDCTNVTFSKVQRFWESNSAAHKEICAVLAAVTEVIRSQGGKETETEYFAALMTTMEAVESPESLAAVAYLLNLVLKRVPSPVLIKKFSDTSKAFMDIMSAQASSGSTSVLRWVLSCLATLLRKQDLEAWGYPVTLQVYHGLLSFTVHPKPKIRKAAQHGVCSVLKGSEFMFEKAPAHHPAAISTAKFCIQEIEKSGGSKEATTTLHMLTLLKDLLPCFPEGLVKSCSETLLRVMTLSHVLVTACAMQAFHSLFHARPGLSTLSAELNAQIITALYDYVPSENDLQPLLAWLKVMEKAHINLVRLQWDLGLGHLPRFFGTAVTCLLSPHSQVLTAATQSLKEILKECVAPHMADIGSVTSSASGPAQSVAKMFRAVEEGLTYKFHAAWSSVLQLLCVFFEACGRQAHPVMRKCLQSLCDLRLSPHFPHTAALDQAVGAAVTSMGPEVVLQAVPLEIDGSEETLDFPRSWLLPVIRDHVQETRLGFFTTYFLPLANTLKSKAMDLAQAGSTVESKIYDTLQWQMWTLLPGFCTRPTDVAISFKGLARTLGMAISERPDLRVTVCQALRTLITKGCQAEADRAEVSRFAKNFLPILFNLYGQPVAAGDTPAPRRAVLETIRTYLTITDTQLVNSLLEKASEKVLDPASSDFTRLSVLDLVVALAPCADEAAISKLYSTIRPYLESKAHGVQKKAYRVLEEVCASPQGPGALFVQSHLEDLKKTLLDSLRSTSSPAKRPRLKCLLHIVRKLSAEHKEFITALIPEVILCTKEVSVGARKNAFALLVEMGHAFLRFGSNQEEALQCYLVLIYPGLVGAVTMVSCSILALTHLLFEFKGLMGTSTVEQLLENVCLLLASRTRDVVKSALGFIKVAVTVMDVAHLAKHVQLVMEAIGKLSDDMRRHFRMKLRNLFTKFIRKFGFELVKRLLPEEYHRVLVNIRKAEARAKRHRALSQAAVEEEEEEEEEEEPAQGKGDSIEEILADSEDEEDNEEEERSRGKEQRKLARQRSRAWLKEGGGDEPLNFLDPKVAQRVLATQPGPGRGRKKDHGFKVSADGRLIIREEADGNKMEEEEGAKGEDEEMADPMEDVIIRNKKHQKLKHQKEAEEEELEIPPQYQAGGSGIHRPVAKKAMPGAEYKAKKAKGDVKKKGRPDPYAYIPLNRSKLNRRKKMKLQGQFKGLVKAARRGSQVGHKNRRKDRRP
UniProt Q8N488: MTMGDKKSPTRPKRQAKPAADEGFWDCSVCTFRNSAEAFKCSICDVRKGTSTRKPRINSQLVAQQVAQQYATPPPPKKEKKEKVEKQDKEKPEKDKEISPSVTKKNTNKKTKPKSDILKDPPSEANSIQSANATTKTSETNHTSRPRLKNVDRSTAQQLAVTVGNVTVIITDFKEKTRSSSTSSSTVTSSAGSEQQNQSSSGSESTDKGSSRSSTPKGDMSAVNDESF
UniProt P05387, whole entry, looked up: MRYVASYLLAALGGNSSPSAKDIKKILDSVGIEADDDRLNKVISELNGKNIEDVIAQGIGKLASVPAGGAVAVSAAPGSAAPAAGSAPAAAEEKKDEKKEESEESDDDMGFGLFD

Tests used:
Assay in all cases: log2 fold change, soluble protein after heating vs DMSO (PISA); higher = thermal stabilisation; K562 lysate, 10 uM; active = over 0.2 and 3.5 SD of the protein, either way, in both replicates (recomputed)
lapatinib = compound: CS(=O)(=O)CCNCc1ccc(-c2ccc3ncnc(Nc4ccc(OCc5cccc(F)c5)c(Cl)c4)c3c2)o1 [lapatinib]
How it was run: (§1)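 A 30 min treatment with 10 μM compound was applied to crude K562 extract at 1 mg/mL protein in PBS pH 7.4 with 1 mM MgCl2. Heating for 3 min spanned 48°C-58°C, after which aliquots were pooled, adjusted to 0.5% NP-40 at 4°C and spun at 21,000xg for 90 min. TMTpro 16plex LC-MS/MS of the supernatant, with channel sums equalised, gave values recorded as log-two fold change in thermal stability against solvent controls, from duplicates.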

pictilisib = compound: CS(=O)(=O)N1CCN(Cc2cc3nc(-c4cccc5[nH]ncc45)nc(N4CCOCC4)c3s2)CC1 [pictilisib]
How it was run: as §1

crizotinib = compound: C[C@@H](Oc1cc(-c2cnn(C3CCNCC3)c2)cnc1N)c1c(Cl)ccc(F)c1Cl [crizotinib]
How it was run: as §1

[1] = compound: C[C@H](C1=CC=C(C=C1)C(=O)NC2=C3C=CNC3=NC=C2)N
How it was run: as §1

duvelisib = compound: C[C@H](Nc1ncnc2nc[nH]c12)c1cc2cccc(Cl)c2c(=O)n1-c1ccccc1 [duvelisib]
How it was run: as §1

gandotinib = compound: Cc1cc(Nc2cc(CN3CCOCC3)c3nc(C)c(Cc4ccc(Cl)cc4F)n3n2)n[nH]1 [gandotinib]
How it was run: as §1

tozasertib = compound: Cc1cc(Nc2cc(N3CCN(C)CC3)nc(Sc3ccc(NC(=O)C4CC4)cc3)n2)n[nH]1 [tozasertib]
How it was run: as §1

doramapimod = compound: Cc1ccc(-n2nc(C(C)(C)C)cc2NC(=O)Nc2ccc(OCCN3CCOCC3)c3ccccc23)cc1 [doramapimod]
How it was run: as §1

bafetinib = compound: Cc1ccc(NC(=O)c2ccc(CN3CC[C@H](N(C)C)C3)c(C(F)(F)F)c2)cc1Nc1nccc(-c2cncnc2)n1 [bafetinib]
How it was run: as §1

[2] = compound: Cc1cccc(CC(=O)N2CCc3c2ccc(-c2cn(C)c4ncnc(N)c24)c3F)n1
How it was run: as §1

nilotinib = compound: Cc1cn(-c2cc(NC(=O)c3ccc(C)c(Nc4nccc(-c5cccnc5)n4)c3)cc(C(F)(F)F)c2)cn1 [nilotinib]
How it was run: as §1

[3] = compound: Cc1nc(Nc2n[nH]c3c2CN(C(=O)N[C@H](CN(C)C)c2ccccc2)C3(C)C)c2sccc2n1
How it was run: as §1

dasatinib = compound: Cc1nc(Nc2ncc(C(=O)Nc3c(C)cccc3Cl)s2)cc(N2CCN(CCO)CC2)n1 [dasatinib]
How it was run: as §1

[4] = compound: Cc1ncc(-c2ccnc(Nc3ccc(S(C)(=O)=O)cc3)n2)n1C(C)C
How it was run: as §1

[5] = compound: Cn1cc(-c2ccc3c(c2)CCN3C(=O)Cc2cccc(C(F)(F)F)c2)c2c(N)ncnc21
How it was run: as §1

quisinostat = compound: Cn1cc(CNCC2CCN(c3ncc(C(=O)NO)cn3)CC2)c2ccccc21 [quisinostat]
How it was run: as §1

tipifarnib = compound: Cn1cncc1[C@@](N)(c1ccc(Cl)cc1)c1ccc2c(c1)c(-c1cccc(Cl)c1)cc(=O)n2C [tipifarnib]
How it was run: as §1

[6] = compound: NC(=O)Nc1cc(-c2cccc(F)c2)sc1C(=O)N[C@H]1CCCNC1
How it was run: as §1

[7] = compound: NC(=O)c1cnc(N[C@@H]2CCCC[C@@H]2N)nc1Nc1cccc(-n2nccn2)c1
How it was run: as §1

[8] = compound: NC1(c2ccc(-c3nc4ccn5c(=O)[nH]nc5c4cc3-c3ccccc3)cc2)CCC1
How it was run: as §1

Measured: log2 fold change

RPL7 (UniProt P18124)
inactive: lapatinib -0.033 | pictilisib 0.011 | crizotinib 0.008 | [1] 0.016 | duvelisib 0.014 | gandotinib 0.008 | tozasertib -0.052 | doramapimod -0.04 | bafetinib 0.022 | [2] 0.013 | nilotinib 0.02 | [3] -0.017 | dasatinib 0.009 | [4] 0.005 | [5] -0.028 | quisinostat 0.015 | tipifarnib 0.018 | [6] -0.005 | [7] -0.013 | [8] 0.002

RRBP1 (UniProt Q9P2E9)
inactive: lapatinib -0.029 | pictilisib -0.005 | crizotinib -0.008 | [1] 0.067 | duvelisib -0.008 | gandotinib -0.09 | tozasertib -0.013 | doramapimod -0.017 | bafetinib -0.012 | [2] -0.043 | nilotinib -0.001 | [3] 0.003 | dasatinib 0.012 | [4] -0.006 | [5] 0.006 | quisinostat 0.003 | tipifarnib -0.039 | [6] 0.018 | [7] 0.004 | [8] -0.009

RPUSD2 (UniProt Q8IZ73)
inactive: lapatinib 0.003 | pictilisib -0.019 | crizotinib -0.005 | [1] -0.007 | duvelisib 0.018 | gandotinib 0.037 | tozasertib -0.033 | doramapimod -0.022 | bafetinib 0.068 | [2] -0.032 | nilotinib 0.009 | [3] 0.012 | dasatinib -0.003 | [4] -0.001 | [5] -0.02 | quisinostat -0.009 | tipifarnib -0.005 | [6] 0.001 | [7] -0.003 | [8] -0.017

RUVBL2 (UniProt Q9Y230)
inactive: lapatinib -0.02 | pictilisib -0.004 | crizotinib 0.003 | [1] -0.002 | duvelisib 0.01 | gandotinib -0.008 | tozasertib -0.012 | doramapimod -0.023 | bafetinib 0.016 | [2] -0.014 | nilotinib 0.006 | [3] 0.01 | dasatinib -0.014 | [4] 0.009 | [5] -0.001 | quisinostat 0.009 | tipifarnib -0.013 | [6] -0.01 | [7] -0.001 | [8] 0.008

RRP9 (UniProt O43818)
inactive: lapatinib -0.024 | pictilisib 0.001 | crizotinib -0.049 | [1] -0.11 | duvelisib -0.054 | gandotinib 0 | tozasertib 0.235 | doramapimod 0.018 | bafetinib -0.197 | [2] 0.02 | nilotinib 0.059 | [3] -0.016 | dasatinib 0.08 | [4] -0.019 | [5] 0.123 | quisinostat -0.125 | tipifarnib -0.002 | [6] 0.032 | [7] 0.014 | [8] 0.119

RPS27A (UniProt P62979)
inactive: lapatinib 0.008 | pictilisib 0.054 | crizotinib 0.013 | [1] -0.01 | duvelisib 0.066 | gandotinib 0.111 | tozasertib -0.02 | doramapimod -0.022 | bafetinib 0.177 | [2] -0.016 | nilotinib -0.004 | [3] 0.054 | dasatinib -0.101 | [4] 0.051 | [5] -0.004 | quisinostat -0.025 | tipifarnib -0.034 | [6] -0.005 | [7] 0.006 | [8] 0.02

RPS2 (UniProt P15880)
inactive: lapatinib -0.012 | pictilisib 0.014 | crizotinib -0.001 | [1] 0.004 | duvelisib 0.006 | gandotinib 0.006 | tozasertib -0.046 | doramapimod 0.006 | bafetinib -0.003 | [2] -0.02 | nilotinib 0.015 | [3] -0.029 | dasatinib -0.001 | [4] 0.001 | [5] -0.003 | quisinostat 0.018 | tipifarnib 0.029 | [6] -0.015 | [7] 0.002 | [8] 0.007

RPN2 (UniProt P04844)
inactive: lapatinib -0.048 | pictilisib -0.006 | crizotinib -0.004 | [1] -0.074 | duvelisib -0.003 | gandotinib 0.039 | tozasertib -0.003 | doramapimod 0 | bafetinib -0.032 | [2] 0.06 | nilotinib -0.011 | [3] 0.005 | dasatinib -0.008 | [4] -0.013 | [5] -0.006 | quisinostat 0.049 | tipifarnib -0.015 | [6] -0.001 | [7] 0.011 | [8] -0.003

RPS28 (UniProt P62857)
inactive: lapatinib 0.001 | pictilisib 0.082 | crizotinib 0.006 | [1] -0.054 | duvelisib 0.024 | gandotinib 0.015 | tozasertib 0.082 | doramapimod 0.013 | bafetinib 0.18 | [2] 0.039 | nilotinib -0.039 | [3] -0.008 | dasatinib 0.048 | [4] -0.003 | [5] -0.031 | quisinostat -0.009 | tipifarnib 0.012 | [6] -0.03 | [7] 0.022 | [8] 0.009

Reprinted from the results shown (3 entries):
RUVBL2 (UniProt Q9Y230)
inactive: lapatinib -0.02 | pictilisib -0.004 | crizotinib 0.003 | [1] -0.002 | duvelisib 0.01 | gandotinib -0.008 | tozasertib -0.012 | doramapimod -0.023 | bafetinib 0.016 | [2] -0.014 | nilotinib 0.006 | [3] 0.01 | dasatinib -0.014 | [4] 0.009 | [5] -0.001 | quisinostat 0.009 | tipifarnib -0.013 | [6] -0.01 | [7] -0.001 | [8] 0.008

RRP9 (UniProt O43818)
inactive: lapatinib -0.024 | pictilisib 0.001 | crizotinib -0.049 | [1] -0.11 | duvelisib -0.054 | gandotinib 0 | tozasertib 0.235 | doramapimod 0.018 | bafetinib -0.197 | [2] 0.02 | nilotinib 0.059 | [3] -0.016 | dasatinib 0.08 | [4] -0.019 | [5] 0.123 | quisinostat -0.125 | tipifarnib -0.002 | [6] 0.032 | [7] 0.014 | [8] 0.119

RPS27A (UniProt P62979)
inactive: lapatinib 0.008 | pictilisib 0.054 | crizotinib 0.013 | [1] -0.01 | duvelisib 0.066 | gandotinib 0.111 | tozasertib -0.02 | doramapimod -0.022 | bafetinib 0.177 | [2] -0.016 | nilotinib -0.004 | [3] 0.054 | dasatinib -0.101 | [4] 0.051 | [5] -0.004 | quisinostat -0.025 | tipifarnib -0.034 | [6] -0.005 | [7] 0.006 | [8] 0.02

(cont.)

RSRC1 (UniProt Q96IZ7)
inactive: lapatinib -0.021 | pictilisib -0.006 | crizotinib 0.059 | [1] -0.038 | duvelisib 0.049 | gandotinib 0 | tozasertib 0.022 | doramapimod -0.006 | bafetinib -0.02 | [2] 0.006 | nilotinib -0.014 | [3] -0.06 | dasatinib 0.011 | [4] 0.031 | [5] 0.006 | quisinostat 0.03 | tipifarnib 0.024 | [6] -0.045 | [7] -0.007 | [8] 0.043

RPS4X (UniProt P62701)
inactive: lapatinib -0.006 | pictilisib 0.009 | crizotinib -0.024 | [1] 0.209 | duvelisib 0.012 | gandotinib -0.038 | tozasertib -0.018 | doramapimod -0.01 | bafetinib -0.008 | [2] -0.04 | nilotinib 0.01 | [3] -0.023 | dasatinib 0.025 | [4] -0.002 | [5] -0.003 | quisinostat 0.016 | tipifarnib 0.01 | [6] -0.001 | [7] -0.034 | [8] 0.008

RPP25L (UniProt Q8N5L8)
inactive: lapatinib 0.056 | pictilisib -0.093 | crizotinib -0.044 | [1] 0.137 | duvelisib 0.022 | gandotinib 0.153 | tozasertib -0.068 | doramapimod 0.021 | bafetinib -0.016 | [2] 0.034 | nilotinib 0.038 | [3] -0.022 | dasatinib -0.055 | [4] -0.04 | [5] -0.07 | quisinostat -0.088 | tipifarnib 0.018 | [6] -0.041 | [7] 0.029 | [8] -0.003

RRP12 (UniProt Q5JTH9)
inactive: lapatinib -0.021 | pictilisib -0.011 | crizotinib -0.061 | [1] 0.018 | duvelisib 0.023 | gandotinib -0.077 | tozasertib 0.003 | doramapimod -0.004 | bafetinib -0.071 | [2] 0.032 | nilotinib -0.04 | [3] 0.027 | dasatinib -0.009 | [4] -0.003 | [5] 0.026 | quisinostat -0.032 | tipifarnib -0.003 | [6] 0.06 | [7] 0 | [8] 0.023

RYBP (UniProt Q8N488)
inactive: lapatinib 0.024 | pictilisib 0.05 | crizotinib -0.013 | [1] -0.027 | duvelisib 0.009 | gandotinib 0.012 | tozasertib -0.016 | doramapimod 0.069 | bafetinib -0.006 | [2] 0.096 | nilotinib -0.006 | [3] 0.12 | dasatinib 0.098 | [4] -0.015 | [5] 0.006 | quisinostat -0.095 | tipifarnib -0.004 | [6] -0.027 | [7] 0.011 | [8] -0.113

RPLP2 (UniProt P05387)
inactive: lapatinib 0.026 | pictilisib -0.014 | crizotinib -0.013 | [1] 0.028 | duvelisib -0.01 | gandotinib -0.02 | tozasertib 0.003 | doramapimod 0.006 | bafetinib -0.083 | [2] -0.02 | nilotinib 0 | [3] 0.035 | dasatinib 0.017 | [4] 0.012 | [5] -0.03 | quisinostat 0.004 | tipifarnib 0.026 | [6] -0.01 | [7] -0.049 | [8] 0.008
